# From the supplement of paper PMC7238544
# Counter-ions that a name gives are not always drawn. ± gives the standard deviation of the averaged measurements. The list shows a part of the results. The data scatter; read single values as rough. *1 amine or outer side, *2 acyl side, *3 side chain or, on linkers, in order; H or OH if unused. Where a SMILES comes first, the peptide text is derived from it. Bridges are numbered along the chain shown (N, C = ends). Roman numbers before positions name the chains, in order. [ ]: non-standard residue; d: D form. Actinocin(9to1) = Cc1c2oc3c(C)ccc(C(=O)[*:1])c3nc-2c(C(=O)[*:2])c(N)c1=O; NMeV = CN[C@H](C(=O)O)C(C)C; Sar = CNCC(=O)O
# What was measured:
# hAMSC donor 1 [1] = experiment: Hoechst total cell count ratio vs vehicle control; higher = more cells (less toxicity)
# hAMSC donor 2 [2] = experiment: as above
# hAMSC donor 1 [3] = experiment: transgenic luciferase activity (RLU/mg protein) fold change vs vehicle control (ratio); higher = more transgene expression
# hAMSC donor 2 [4] = experiment: as above
# hAMSC donor 1 [5] = experiment: transfection efficiency (EGFP+ cells / Hoechst count) fold change vs vehicle control (ratio); hAMSC are human adipose-derived mesenchymal stem cells given an EGFP-luciferase plasmid by lipofection; higher = enhanced transfection
# hAMSC donor 2 [6] = experiment: as above
# [7] = priming compound concentration 0.2 µM
# [8] = priming compound concentration 1.7 µM
# [9] = priming compound concentration 13 µM
Compound,Hoechst total cell count ratio (hAMSC donor 1 [1]; [7]),Hoechst total cell count ratio (hAMSC donor 1 [1]; [8]),Hoechst total cell count ratio (hAMSC donor 1 [1]; [9]),Hoechst total cell count ratio (hAMSC donor 2 [2]; [7]),Hoechst total cell count ratio (hAMSC donor 2 [2]; [8]),Hoechst total cell count ratio (hAMSC donor 2 [2]; [9]),transgenic luciferase activity (hAMSC donor 1 [3]; [7]),transgenic luciferase activity (hAMSC donor 1 [3]; [8]),transgenic luciferase activity (hAMSC donor 1 [3]; [9]),transgenic luciferase activity (hAMSC donor 2 [4]; [7]),transgenic luciferase activity (hAMSC donor 2 [4]; [8]),transgenic luciferase activity (hAMSC donor 2 [4]; [9]),transfection efficiency (hAMSC donor 1 [5]; [7]),transfection efficiency (hAMSC donor 1 [5]; [8]),transfection efficiency (hAMSC donor 1 [5]; [9]),transfection efficiency (hAMSC donor 2 [6]; [7]),transfection efficiency (hAMSC donor 2 [6]; [8]),transfection efficiency (hAMSC donor 2 [6]; [9])
CCC(=O)OCC(=O)[C@@]1(OC(=O)CC)[C@@H](C)C[C@H]2[C@@H]3CCC4=CC(=O)C=C[C@]4(C)[C@@]3(Cl)[C@@H](O)C[C@@]21C [Beclomethasone dipropionate],1.24 ± 0.076,1.25 ± 0.038,1 ± 0.065,1.21 ± 0.23,1.31 ± 0.037,1.17 ± 0.19,4.06 ± 0.63,7.45 ± 2,7.14 ± 0.47,1.68 ± 0.85,4.08 ± 0.24,6.94 ± 4.3,1.95 ± 0.31,1.53 ± 0.69,2.39 ± 0.54,1.69 ± 0.51,1.58 ± 0.29,2.42 ± 0.29
CCCCNc1cc(C(=O)O)cc(S(N)(=O)=O)c1Oc1ccccc1 [Bumetanide],1.2 ± 0.057,1.35 ± 0.04,1.17 ± 0.031,1.13 ± 0.073,1.11 ± 0.042,1.43 ± 0.27,0.788 ± 0.43,0.717 ± 0.16,1.16 ± 0.45,0.521 ± 0.16,1.35 ± 0.53,0.568 ± 0.17,1.16 ± 0.26,1.04 ± 0.38,0.744 ± 0.32,0.844 ± 0.13,0.984 ± 0.11,1 ± 0.31
CCCCC1=NC2(CCCC2)C(=O)N1Cc1ccc(-c2ccccc2-c2nnn[nH]2)cc1 [Irbesartan],1.33 ± 0.3,1.21 ± 0.14,1.235 ± 0.0083,1.17 ± 0.28,0.954 ± 0.07,1.52 ± 0.14,0.6 ± 0.27,0.831 ± 0.23,2.08 ± 1.8,–,–,1.69 ± 0.77,0.871 ± 0.18,1.01 ± 0.13,1.08 ± 0.25,0.986 ± 0.4,1.24 ± 0.18,1.75 ± 0.19
C[C@]12CCC(=O)C=C1CC[C@@H]1[C@@H]2[C@@H](O)C[C@@]2(C)[C@H]1CC[C@]2(O)C(=O)CO [Hydrocortisone],1.48 ± 0.14,1.3 ± 0.13,1.47 ± 0.091,1.21 ± 0.075,1.21 ± 0.065,1.3 ± 0.082,–,1.79 ± 1.3,3.64 ± 0.24,1.11 ± 0.19,1.84 ± 0.26,2.28 ± 0.23,0.964 ± 0.34,1.37 ± 0.3,1.44 ± 0.21,0.977 ± 0.073,1.346 ± 0.012,1.34 ± 0.1
O=C(O)c1cc(/N=N/c2ccc(S(=O)(=O)Nc3ccccn3)cc2)ccc1O [Sulfasalazine],1.34 ± 0.15,1.26 ± 0.056,1.13 ± 0.12,1.16 ± 0.16,0.857 ± 0.08,1.17 ± 0.25,0.634 ± 0.19,0.574 ± 0.43,1.04 ± 0.18,–,–,1.03 ± 0.033,1.05 ± 0.14,1.13 ± 0.14,0.965 ± 0.044,1.02 ± 0.21,1.1 ± 0.2,1.63 ± 0.16
C[C@]12C=CC(=O)C=C1CC[C@@H]1[C@@H]2[C@@H](O)C[C@@]2(C)[C@H]1CC[C@]2(O)C(=O)COC(=O)CCC(=O)O [Prednisolone sodium succinate],1.45 ± 0.11,1.3 ± 0.073,1.32 ± 0.081,1.09 ± 0.052,1.14 ± 0.13,1.51 ± 0.13,0.917 ± 0.12,5.41 ± 0.56,–,1.53 ± 0.14,2.73 ± 0.51,1.86 ± 1.1,0.998 ± 0.13,1.15 ± 0.17,0.982 ± 0.15,1.48 ± 0.32,1.7 ± 0.23,1.23 ± 0.34
"Cc1c2oc3c(C)ccc(C(=O)N[C@@H]4C(=O)N[C@H](C(C)C)C(=O)N5CCC[C@H]5C(=O)N(C)CC(=O)N(C)[C@@H](C(C)C)C(=O)O[C@@H]4C)c3nc-2c(C(=O)N[C@@H]2C(=O)N[C@H](C(C)C)C(=O)N3CCC[C@H]3C(=O)N(C)CC(=O)N(C)[C@@H](C(C)C)C(=O)O[C@@H]2C)c(N)c1=O [Dactinomycin] (I: T[dV]P[Sar][NMeV] / II: T[dV]P[Sar][NMeV]; ester I:1-I:C, II:1-II:C; linker I:N-II:N via Actinocin(9to1))",0.532 ± 0.067,0.386 ± 0.094,0.267 ± 0.022,0.474 ± 0.055,0.311 ± 0.016,0.134 ± 0.01,1.37 ± 0.68,3.27 ± 1.1,–,1.35 ± 0.22,0.419 ± 0.098,0.00885 ± 0.0083,1.22 ± 0.14,0.398 ± 0.16,0.227 ± 0.24,2.23 ± 0.58,1.42 ± 0.55,0.173 ± 0.19
O=C(O)COCCN1CCN([C@H](c2ccccc2)c2ccc(Cl)cc2)CC1 [Levocetirizine],1.55 ± 0.13,1.18 ± 0.054,1.08 ± 0.14,1.26 ± 0.36,0.637 ± 0.069,1.11 ± 0.07,0.567 ± 0.19,0.725 ± 0.36,0.42 ± 0.055,–,–,1.3 ± 0.61,0.983 ± 0.31,1.48 ± 0.098,0.996 ± 0.23,1.04 ± 0.23,1.9 ± 0.37,1.44 ± 0.52
OCCN1CCN(CCCN2c3ccccc3Sc3ccc(Cl)cc32)CC1 [Perphenazine],1.33 ± 0.18,1.22 ± 0.099,1.29 ± 0.033,0.98 ± 0.28,0.771 ± 0.043,1.35 ± 0.26,0.896 ± 0.23,0.907 ± 0.098,0.36 ± 0.02,–,–,1.13 ± 0.23,1.28 ± 0.075,1.12 ± 0.49,0.554 ± 0.021,1.25 ± 0.36,1.64 ± 0.08,1.08 ± 0.49
CC(C)C[C@H](NC(=O)[C@@H](O)[C@H](N)Cc1ccccc1)C(=O)O [Bestatin],1.18 ± 0.019,1.3 ± 0.049,1.1 ± 0.046,0.955 ± 0.17,1.16 ± 0.17,1.28 ± 0.28,0.842 ± 0.26,0.578 ± 0.018,1.01 ± 0.29,0.988 ± 0.5,1.04 ± 0.26,1.04 ± 0.28,1.26 ± 0.23,0.685 ± 0.063,1.33 ± 0.38,1.32 ± 0.26,1.07 ± 0.26,1.12 ± 0.39
CC(COc1ccccc1Cc1ccccc1)N1CCCCC1 (stereo not drawn) [Benproperine phosphate],1.26 ± 0.056,1.36 ± 0.06,1.24 ± 0.082,1.16 ± 0.088,1.04 ± 0.16,1.57 ± 0.031,0.722 ± 0.17,0.883 ± 0.34,1.21 ± 0.5,0.63 ± 0.2,1.24 ± 0.1,0.882 ± 0.49,1.09 ± 0.53,1.09 ± 0.21,0.996 ± 0.35,1.06 ± 0.4,1.18 ± 0.27,0.888 ± 0.13
O=c1n(CCCN2CCN(c3cccc(Cl)c3)CC2)nc2ccccn12 [Trazodone hydrochloride],–,–,–,–,–,–,0.617 ± 0.17,0.83 ± 0.41,1.02 ± 0.62,0.635 ± 0.07,1.01 ± 0.23,2.04 ± 0.17,1.2 ± 0.57,1.52 ± 0.75,1.09 ± 0.19,1.15 ± 0.28,1.11 ± 0.1,1.34 ± 0.037
CC(=O)OCC(=O)[C@@]12OC3(CCCC3)O[C@@H]1C[C@H]1[C@@H]3CCC4=CC(=O)C=C[C@]4(C)[C@@]3(F)[C@@H](O)C[C@@]12C [Amcinonide],1.25 ± 0.055,1.25 ± 0.13,1.02 ± 0.075,1.61 ± 0.018,1.16 ± 0.091,1.63 ± 0.073,3.13 ± 0.77,6.24 ± 1.3,8.12 ± 2.5,1.14 ± 0.32,4.5 ± 0.34,4.3 ± 0.64,1.79 ± 0.41,2.48 ± 1.6,2.27 ± 0.62,1.12 ± 0.038,1.8 ± 0.1,1.62 ± 0.11
Cc1onc(-c2ccccc2)c1-c1ccc(S(N)(=O)=O)cc1 [Valdecoxib],1.4 ± 0.33,1.04 ± 0.11,0.976 ± 0.16,1.09 ± 0.38,0.885 ± 0.18,1.03 ± 0.06,0.643 ± 0.34,0.911 ± 0.26,1 ± 0.52,–,–,1.2 ± 0.3,1.02 ± 0.21,1.43 ± 0.2,0.9832 ± 0.005,1.23 ± 0.36,1.11 ± 0.075,1.61 ± 0.39

# 2 of these compounds in another layout.
Compound	Hoechst total cell count ratio (hAMSC donor 1 [1]; [7])	Hoechst total cell count ratio (hAMSC donor 1 [1]; [8])	Hoechst total cell count ratio (hAMSC donor 1 [1]; [9])	Hoechst total cell count ratio (hAMSC donor 2 [2]; [7])	Hoechst total cell count ratio (hAMSC donor 2 [2]; [8])	Hoechst total cell count ratio (hAMSC donor 2 [2]; [9])	transgenic luciferase activity (hAMSC donor 1 [3]; [7])	transgenic luciferase activity (hAMSC donor 1 [3]; [8])	transgenic luciferase activity (hAMSC donor 1 [3]; [9])	transgenic luciferase activity (hAMSC donor 2 [4]; [7])	transgenic luciferase activity (hAMSC donor 2 [4]; [8])	transgenic luciferase activity (hAMSC donor 2 [4]; [9])	transfection efficiency (hAMSC donor 1 [5]; [7])	transfection efficiency (hAMSC donor 1 [5]; [8])	transfection efficiency (hAMSC donor 1 [5]; [9])	transfection efficiency (hAMSC donor 2 [6]; [7])	transfection efficiency (hAMSC donor 2 [6]; [8])	transfection efficiency (hAMSC donor 2 [6]; [9])
CCCCNc1cc(C(=O)O)cc(S(N)(=O)=O)c1Oc1ccccc1 [Bumetanide]	1.2 ± 0.057	1.35 ± 0.04	1.17 ± 0.031	1.13 ± 0.073	1.11 ± 0.042	1.43 ± 0.27	0.788 ± 0.43	0.717 ± 0.16	1.16 ± 0.45	0.521 ± 0.16	1.35 ± 0.53	0.568 ± 0.17	1.16 ± 0.26	1.04 ± 0.38	0.744 ± 0.32	0.844 ± 0.13	0.984 ± 0.11	1 ± 0.31
OCCN1CCN(CCCN2c3ccccc3Sc3ccc(Cl)cc32)CC1 [Perphenazine]	1.33 ± 0.18	1.22 ± 0.099	1.29 ± 0.033	0.98 ± 0.28	0.771 ± 0.043	1.35 ± 0.26	0.896 ± 0.23	0.907 ± 0.098	0.36 ± 0.02	–	–	1.13 ± 0.23	1.28 ± 0.075	1.12 ± 0.49	0.554 ± 0.021	1.25 ± 0.36	1.64 ± 0.08	1.08 ± 0.49
